No constants are given. Whether binding was seen depends on the method and setting. In cells and extracts the contact can be indirect. Some results given as binding are weak or reduced against the parent protein; the word gives no strength.
Key:
[1] = target: human type 1 cannabinoid receptor (hCB1R) (human) (UniProt P21554); assay: condition: only cells treated with GAT1664 (0.10 nM–10 µM) as the activating compound; split reporter; PathHunter βarrestin2 recruitment assay (DiscoveRx) in hCB1R CHO-K1 cells; cells treated 90 min with 0.10 nM–10 µM GAT1664; chemiluminescence
[2] = target: human type 1 cannabinoid receptor (hCB1R) (human) (UniProt P21554); assay: split reporter; PathHunter βarrestin2 recruitment assay (DiscoveRx) in hCB1R CHO-K1 cells; cells treated 90 min with 0.10 nM–10 µM compounds (CP55,940, GAT1665, GAT1667, GAT1666) ±100 nM CP55,940; chemiluminescence; data as % CP55,940 max

Protein sequences, listed by entry. Tags and fused reporters are not part of them.
UniProt P21554: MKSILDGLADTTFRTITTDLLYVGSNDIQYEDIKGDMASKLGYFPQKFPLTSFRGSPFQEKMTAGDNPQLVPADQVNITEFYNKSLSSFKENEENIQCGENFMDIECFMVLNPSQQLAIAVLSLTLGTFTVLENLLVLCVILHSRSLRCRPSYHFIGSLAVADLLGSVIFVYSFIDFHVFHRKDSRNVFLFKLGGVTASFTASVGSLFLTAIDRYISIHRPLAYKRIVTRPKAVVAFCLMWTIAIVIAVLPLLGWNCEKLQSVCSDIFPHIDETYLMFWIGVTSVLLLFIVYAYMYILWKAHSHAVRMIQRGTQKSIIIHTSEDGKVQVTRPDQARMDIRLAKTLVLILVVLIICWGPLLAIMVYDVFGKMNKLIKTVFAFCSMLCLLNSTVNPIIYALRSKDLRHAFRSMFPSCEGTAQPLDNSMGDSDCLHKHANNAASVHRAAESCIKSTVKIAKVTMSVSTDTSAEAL
UniProt P32121: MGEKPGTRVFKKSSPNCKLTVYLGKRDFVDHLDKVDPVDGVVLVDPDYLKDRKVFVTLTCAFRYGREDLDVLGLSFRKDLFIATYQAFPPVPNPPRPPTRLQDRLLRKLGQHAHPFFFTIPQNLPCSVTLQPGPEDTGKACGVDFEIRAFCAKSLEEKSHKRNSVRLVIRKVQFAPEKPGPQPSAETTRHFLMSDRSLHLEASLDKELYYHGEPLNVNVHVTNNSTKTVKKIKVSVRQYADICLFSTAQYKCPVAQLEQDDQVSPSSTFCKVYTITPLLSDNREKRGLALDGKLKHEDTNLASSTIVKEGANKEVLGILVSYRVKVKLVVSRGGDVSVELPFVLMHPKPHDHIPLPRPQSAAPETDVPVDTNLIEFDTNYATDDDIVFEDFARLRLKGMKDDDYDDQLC

## βarrestin2 (from UniProt P32121 1-409)
[1]
  binding: no binding
[2]
  binding: binds
